This is an account of results in publication doi:10.1101/2023.02.01.526449.

Like-named read-outs stand apart in the source and are kept apart here. No constants are given. Whether binding was seen depends on the method and setting. Binding seen in cells or lysates may run through a third protein. These calls come from enrichment with a bait or labelling near it, and not all partners need be listed. A no says only that the protein was not detected with the bait. Tags and fused reporters may be left off the sequences shown.

Test [1] addresses T1, V5-TurboID fused to the lysosomal transmembrane protein TMEM192 (UniProt Q8IY95).
T1 sequence: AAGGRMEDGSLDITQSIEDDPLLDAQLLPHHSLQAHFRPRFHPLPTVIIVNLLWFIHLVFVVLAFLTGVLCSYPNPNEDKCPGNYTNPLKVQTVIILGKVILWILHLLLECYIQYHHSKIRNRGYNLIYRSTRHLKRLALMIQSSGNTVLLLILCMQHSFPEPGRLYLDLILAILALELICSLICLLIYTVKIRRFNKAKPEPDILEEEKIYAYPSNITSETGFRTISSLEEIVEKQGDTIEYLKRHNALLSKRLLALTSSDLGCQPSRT
Put plainly: proximity labelling.

Test [2] has as its target T1, V5-TurboID fused to the lysosomal transmembrane protein TMEM192. The test can be described thus: proximity labelling. The source holds these as a separate data set.

B1: Pleckstrin Homology and RhoGEF Domain Containing G3 (protein, UniProt A1L390 1-1219)
chain: MPVSTSLHQDGSQERPVSLTSTTSSSGSSCDSRSAMEEPSSSEAPAKNGAGSLRSRHLPNSNNNSSSWLNVKGPLSPFNSRAAAGPAHHKLSYLGRVVREIVETERMYVQDLRSIVEDYLLKIIDTPGLLKPEQVSALFGNIENIYALNSQLLRDLDSCNSDPVAVASCFVERSQEFDIYTQYCNNYPNSVAALTECMRDKQQAKFFRDRQELLQHSLPLGSYLLKPVQRILKYHLLLQEIAKHFDEEEDGFEVVEDAIDTMTCVAWYINDMKRRHEHAVRLQEIQSLLINWKGPDLTTYGELVLEGTFRVHRVRNERTFFLFDKTLLITKKRGDHFVYKGNIPCSSLMLIESTRDSLCFTVTHYKHSKQQYSIQAKTVEEKRNWTHHIKRLILENHHATIPQKAKEAILEMDSYYPNRYRCSPERLKKAWSSQDEVSTNVRQGRRQSEPTKHLLRQLNEKARAAGMKGKGRRESESSRSSRRPSGRSPTSTEKRMSFESISSLPEVEPDPEAGSEQEVFSAVEGPSAEETPSDTESPEVLETQLDAHQGLLGMDPPGDMVDFVAAESTEDLKALSSEEEEEMGGAAQEPESLLPPSVLDQASVIAERFVSSFSRRSSVAQEDSKSSGFGSPRLVSRSSSVLSLEGSEKGLARHGSATDSLSCQLSPEVDISVGVATEDSPSVNGMEPPSPGCPVEPDRSSCKKKESALSTRDRLLLDKIKSYYENAEHHDAGFSVRRRESLSYIPKGLVRNSISRFNSLPRPDPEPVPPVGSKRQVGSRPTSWALFELPGPSQAVKGDPPPISDAEFRPSSEIVKIWEGMESSGGSPGKGPGQGQANGFDLHEPLFILEEHELGAITEESATASPESSSPTEGRSPAHLARELKELVKELSSSTQGELVAPLHPRIVQLSHVMDSHVSERVKNKVYQLARQYSLRIKSNKPVMARPPLQWEKVAPERDGKSPTVPCLQEEAGEPLGGKGKRKPVLSLFDYEQLMAQEHSPPKPSSAGEMSPQRFFFNPSAVSQRTTSPGGRPSARSPLSPTETFSWPDVRELCSKYASRDEARRAGGGRPRGPPVNRSHSVPENMVEPPLSGRVGRCRSLSTKRGRGGGEAAQSPGPLPQSKPDGGETLYVTADLTLEDNRRVIVMEKGPLPSPTAGLEESSGQGPSSPVALLGQVQDFQQSAECQPKEEGSRDPADPSQQGRVRNLREKFQALNSVG
With B1, the binding entry in test [1] and in test [2] was “no binding” each time.
